{"source": "the supplement of paper PMC8728848", "binders": {"B1": {"name": "BabA (Helicobacter pylori), O52269_HELPY (protein)", "chain": "AEDDGFYMSAGYQIGEAAQMVKNTKGIQELSDNYENLSNLLTRYSTLNTLIKLSADPSAVNAARENLGASAKNLIGDTKNSPAYQAVLLAINAAVGFWNVVGYVTQCGGNANGQKSTSSTTIFNNEPGYRSTSITCSLNGHMPGYYGPMSIENFKKLNEAYQILQTALKNGLPALKENNGTVNVTYSYTCSGEGNDNCSLQTTGVTNQNNGTKTETQTIDGKSVTTTISSKVVDSQ"}}, "assay_in_all_cases": "glycan array binding signal (z-score within array); higher = stronger binding", "conditions_in_all_cases": "glycan notation: IUPAC condensed, linker removed", "key": {"[1]": {"biological_target": "Gal3S(b1-3)[Fuc(a1-4)]GlcNAc", "procedure,_shortened": "(§1)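 Glycan array binding is given as a within-array Z-score, which can be read as non-binding when negative. The arrays, 3228 of them, came from the Consortium for Functional Glycomics database and were retained only where the protein sequence was available. Z-scores were averaged across arrays of the same protein sequence at different concentrations or buffers and across linkers.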"}, "Gal3S(b1-4)Glc": {"biological_target": "Gal3S(b1-4)Glc", "procedure,_shortened": "as §1"}, "Gal3S(b1-4)Glc6S": {"biological_target": "Gal3S(b1-4)Glc6S", "procedure,_shortened": "as §1"}, "Gal3S(b1-4)GlcNAc": {"biological_target": "Gal3S(b1-4)GlcNAc", "procedure,_shortened": "as §1"}, "Gal3S(b1-4)GlcNAc6S": {"biological_target": "Gal3S(b1-4)GlcNAc6S", "procedure,_shortened": "as §1"}, "[2]": {"biological_target": "Gal3S(b1-4)[Fuc(a1-3)]Glc", "procedure,_shortened": "as §1"}, "[3]": {"biological_target": "Gal3S(b1-4)[Fuc(a1-3)]Glc6S", "procedure,_shortened": "as §1"}, "[4]": {"biological_target": "Gal3S(b1-4)[Fuc(a1-3)]GlcNAc", "procedure,_shortened": "as §1"}, "[5]": {"biological_target": "Gal3S(b1-4)[Fuc(a1-3)]GlcNAc6S", "procedure,_shortened": "as §1"}, "Gal3S4S(b1-4)GlcNAc": {"biological_target": "Gal3S4S(b1-4)GlcNAc", "procedure,_shortened": "as §1"}, "Gal3S6S(b1-4)GlcNAc": {"biological_target": "Gal3S6S(b1-4)GlcNAc", "procedure,_shortened": "as §1"}, "Gal3S6S(b1-4)GlcNAc6S": {"biological_target": "Gal3S6S(b1-4)GlcNAc6S", "procedure,_shortened": "as §1"}, "Gal4S(b1-4)GlcNAc": {"biological_target": "Gal4S(b1-4)GlcNAc", "procedure,_shortened": "as §1"}, "Gal4S6S(b1-4)GlcNAc": {"biological_target": "Gal4S6S(b1-4)GlcNAc", "procedure,_shortened": "as §1"}, "Gal6P(b1-4)GlcNAc": {"biological_target": "Gal6P(b1-4)GlcNAc", "procedure,_shortened": "as §1"}, "Gal6S(b1-3)GlcNAc": {"biological_target": "Gal6S(b1-3)GlcNAc", "procedure,_shortened": "as §1"}, "Gal6S(b1-3)GlcNAc6S": {"biological_target": "Gal6S(b1-3)GlcNAc6S", "procedure,_shortened": "as §1"}, "Gal6S(b1-4)Glc": {"biological_target": "Gal6S(b1-4)Glc", "procedure,_shortened": "as §1"}, "Gal6S(b1-4)Glc6S": {"biological_target": "Gal6S(b1-4)Glc6S", "procedure,_shortened": "as §1"}, "Gal6S(b1-4)GlcNAc": {"biological_target": "Gal6S(b1-4)GlcNAc", "procedure,_shortened": "as §1"}, "Gal6S(b1-4)GlcNAc6S": {"biological_target": "Gal6S(b1-4)GlcNAc6S", "procedure,_shortened": "as §1"}, "GalNAc(a1-3)Gal": {"biological_target": "GalNAc(a1-3)Gal", "procedure,_shortened": "as §1"}, "GalNAc(a1-3)GalNAc": {"biological_target": "GalNAc(a1-3)GalNAc", "procedure,_shortened": "as §1"}, "[6]": {"biological_target": "GalNAc(a1-3)GalNAc(b1-3)Gal(a1-4)Gal(b1-4)Glc", "procedure,_shortened": "as §1"}, "[7]": {"biological_target": "GalNAc(a1-3)GalNAc(b1-3)Gal(a1-4)Gal(b1-4)GlcNAc", "procedure,_shortened": "as §1"}, "GalNAc(b1-3)Gal": {"biological_target": "GalNAc(b1-3)Gal", "procedure,_shortened": "as §1"}, "[8]": {"biological_target": "GalNAc(b1-3)Gal(a1-4)Gal(b1-4)GlcNAc", "procedure,_shortened": "as §1"}, "[9]": {"biological_target": "GalNAc(b1-3)Gal(a1-4)Gal(b1-4)GlcNAc(b1-3)Gal(b1-4)Glc", "procedure,_shortened": "as §1"}, "[10]": {"biological_target": "GalNAc(b1-3)Gal(a1-6)Gal(b1-4)Glc", "procedure,_shortened": "as §1"}, "GalNAc(b1-3)GalNAc": {"biological_target": "GalNAc(b1-3)GalNAc", "procedure,_shortened": "as §1"}, "GalNAc(b1-3)GlcNAc": {"biological_target": "GalNAc(b1-3)GlcNAc", "procedure,_shortened": "as §1"}, "GalNAc(b1-4)Gal(b1-4)Glc": {"biological_target": "GalNAc(b1-4)Gal(b1-4)Glc", "procedure,_shortened": "as §1"}, "GalNAc(b1-4)GlcNAc": {"biological_target": "GalNAc(b1-4)GlcNAc", "procedure,_shortened": "as §1"}, "[11]": {"biological_target": "GalNAc(b1-4)GlcNAc(b1-2)Man", "procedure,_shortened": "as §1"}, "[12]": {"biological_target": "GalNAc(b1-4)GlcNAc(b1-2)Man(a1-3)[GalNAc(b1-4)GlcNAc(b1-2)Man(a1-6)]Man(b1-4)GlcNAc(b1-4)GlcNAc", "procedure,_shortened": "as §1"}, "[13]": {"biological_target": "GalNAc(b1-4)GlcNAc(b1-3)GalNAc(b1-4)GlcNAc", "procedure,_shortened": "as §1"}, "GalNAc(b1-4)GlcNAc6S": {"biological_target": "GalNAc(b1-4)GlcNAc6S", "procedure,_shortened": "as §1"}, "GalNAc(b1-6)GalNAc": {"biological_target": "GalNAc(b1-6)GalNAc", "procedure,_shortened": "as §1"}, "GalNAc3S(b1-4)GlcNAc": {"biological_target": "GalNAc3S(b1-4)GlcNAc", "procedure,_shortened": "as §1"}, "GalNAc3S(b1-4)GlcNAc3S": {"biological_target": "GalNAc3S(b1-4)GlcNAc3S", "procedure,_shortened": "as §1"}, "[14]": {"biological_target": "GalNAc3S(b1-4)[Fuc(a1-3)]GlcNAc", "procedure,_shortened": "as §1"}, "GalNAc4S6S(b1-4)GlcNAc": {"biological_target": "GalNAc4S6S(b1-4)GlcNAc", "procedure,_shortened": "as §1"}, "GalNAc6S(b1-4)GlcNAc": {"biological_target": "GalNAc6S(b1-4)GlcNAc", "procedure,_shortened": "as §1"}, "Glc(a1-4)Glc": {"biological_target": "Glc(a1-4)Glc", "procedure,_shortened": "as §1"}, "[15]": {"biological_target": "Glc(a1-4)Glc(a1-4)Glc(a1-4)Glc", "procedure,_shortened": "as §1"}}, "note": "Some of the results follow."}
{"binder": "B1", "values": [{"measurement": "glycan array binding signal (z-score)", "setting": "[1]", "result": 0.504}, {"measurement": "glycan array binding signal (z-score)", "setting": "Gal3S(b1-4)Glc", "result": 0.988}, {"measurement": "glycan array binding signal (z-score)", "setting": "Gal3S(b1-4)Glc6S", "result": 0.49}, {"measurement": "glycan array binding signal (z-score)", "setting": "Gal3S(b1-4)GlcNAc", "result": 0.257}, {"measurement": "glycan array binding signal (z-score)", "setting": "Gal3S(b1-4)GlcNAc6S", "result": 0.971}, {"measurement": "glycan array binding signal (z-score)", "setting": "[2]", "result": 0.59}, {"measurement": "glycan array binding signal (z-score)", "setting": "[3]", "result": 0.263}, {"measurement": "glycan array binding signal (z-score)", "setting": "[4]", "result": -0.01}, {"measurement": "glycan array binding signal (z-score)", "setting": "[5]", "result": -0.11}, {"measurement": "glycan array binding signal (z-score)", "setting": "Gal3S4S(b1-4)GlcNAc", "result": 0.144}, {"measurement": "glycan array binding signal (z-score)", "setting": "Gal3S6S(b1-4)GlcNAc", "result": 0.985}, {"measurement": "glycan array binding signal (z-score)", "setting": "Gal3S6S(b1-4)GlcNAc6S", "result": 0.088}, {"measurement": "glycan array binding signal (z-score)", "setting": "Gal4S(b1-4)GlcNAc", "result": 0.875}, {"measurement": "glycan array binding signal (z-score)", "setting": "Gal4S6S(b1-4)GlcNAc", "result": 0.153}, {"measurement": "glycan array binding signal (z-score)", "setting": "Gal6P(b1-4)GlcNAc", "result": -0.582}, {"measurement": "glycan array binding signal (z-score)", "setting": "Gal6S(b1-3)GlcNAc", "result": -0.637}, {"measurement": "glycan array binding signal (z-score)", "setting": "Gal6S(b1-3)GlcNAc6S", "result": 0.263}, {"measurement": "glycan array binding signal (z-score)", "setting": "Gal6S(b1-4)Glc", "result": -0.073}, {"measurement": "glycan array binding signal (z-score)", "setting": "Gal6S(b1-4)Glc6S", "result": -0.314}, {"measurement": "glycan array binding signal (z-score)", "setting": "Gal6S(b1-4)GlcNAc", "result": 0.113}, {"measurement": "glycan array binding signal (z-score)", "setting": "Gal6S(b1-4)GlcNAc6S", "result": -0.625}, {"measurement": "glycan array binding signal (z-score)", "setting": "GalNAc(a1-3)Gal", "result": -0.177}, {"measurement": "glycan array binding signal (z-score)", "setting": "GalNAc(a1-3)GalNAc", "result": 0.112}, {"measurement": "glycan array binding signal (z-score)", "setting": "[6]", "result": -0.709}, {"measurement": "glycan array binding signal (z-score)", "setting": "[7]", "result": -0.582}, {"measurement": "glycan array binding signal (z-score)", "setting": "GalNAc(b1-3)Gal", "result": -0.825}, {"measurement": "glycan array binding signal (z-score)", "setting": "[8]", "result": -0.582}, {"measurement": "glycan array binding signal (z-score)", "setting": "[9]", "result": -0.142}, {"measurement": "glycan array binding signal (z-score)", "setting": "[10]", "result": -0.673}, {"measurement": "glycan array binding signal (z-score)", "setting": "GalNAc(b1-3)GalNAc", "result": -0.807}, {"measurement": "glycan array binding signal (z-score)", "setting": "GalNAc(b1-3)GlcNAc", "result": -0.637}, {"measurement": "glycan array binding signal (z-score)", "setting": "GalNAc(b1-4)Gal(b1-4)Glc", "result": 0.326}, {"measurement": "glycan array binding signal (z-score)", "setting": "GalNAc(b1-4)GlcNAc", "result": -0.141}, {"measurement": "glycan array binding signal (z-score)", "setting": "[11]", "result": -0.646}, {"measurement": "glycan array binding signal (z-score)", "setting": "[12]", "result": -0.429}, {"measurement": "glycan array binding signal (z-score)", "setting": "[13]", "result": 0.917}, {"measurement": "glycan array binding signal (z-score)", "setting": "GalNAc(b1-4)GlcNAc6S", "result": 0.344}, {"measurement": "glycan array binding signal (z-score)", "setting": "GalNAc(b1-6)GalNAc", "result": -0.709}, {"measurement": "glycan array binding signal (z-score)", "setting": "GalNAc3S(b1-4)GlcNAc", "result": -0.482}, {"measurement": "glycan array binding signal (z-score)", "setting": "GalNAc3S(b1-4)GlcNAc3S", "result": -0.7}, {"measurement": "glycan array binding signal (z-score)", "setting": "[14]", "result": -0.655}, {"measurement": "glycan array binding signal (z-score)", "setting": "GalNAc4S6S(b1-4)GlcNAc", "result": -0.391}, {"measurement": "glycan array binding signal (z-score)", "setting": "GalNAc6S(b1-4)GlcNAc", "result": -0.764}, {"measurement": "glycan array binding signal (z-score)", "setting": "Glc(a1-4)Glc", "result": 0.962}, {"measurement": "glycan array binding signal (z-score)", "setting": "[15]", "result": 0.344}]}
